From patent US11981713B2, “Method for manufacturing a stable emulsion for peptide delivery” (OSE IMMUNOTHERAPEUTICS, priority 2017, dated 2024)
Part of at least one peptide drawing is inferred or uncertain, most often the ends.

Key:
[1] = Chemical stability of the emulsion (peptide content by LC/MS); format: physicochemical
Procedure: The chemical stability of the peptides contained in the emulsion prepared according to Example 5 is assessed by means of the following method.
A sample of 0.9 g of the emulsion of Example 5 is accurately weighted and mixed with 0.1% TFA in DMSO so as to fill a 5 mL volumetric flask. The mixture is then vortexed for 2 minutes and centrifuged for 7 minutes at 4000 rpm. The lower layer is then analyzed by Liquid Chromatography/Mass Spectroscopy (LC/MS) using the following chromatographic conditions:
Column: Advance Bio Peptide Mapping LC column, 2.1×250 mm, 2.7 μm, C18, 120 Å, Agilent® reference n° 651750-902 or equivalent
Column temperature: 35° C.±2° C.
Sample temperature: 5° C.
Needle wash: 0.1% Trifluoroacetic acid (TFA) in dimethylsulfoxide (DMSO)
Mobile phase: Eluent A: 0.2% TFA in 5% acetonitrile
• Eluent B: 0.2% TFA in 95% acetonitrile Gradient table: […]
A standard solution is prepared by transferring 0.9 mL of the batch suspension described in Example 1 with 1.1 mL of Montanide ISA 51 in a 10.0 mL volumetric flask, then vortexing and centrifuging the mixture as described above. The lower layer thus obtained is analyzed in the same conditions as above.
The concentration of each peptide is expressed in mg/g using the formula:
[formula] where: A: is the peak area of each peptide in the sample solution S: is the peak area of each peptide in the standard solution W: is the sample weight expressed in g

[2] = Peptide concentration in emulsions prepared with different stirring times; format: physicochemical; settings: initial concentration in emulsion
Procedure: Emulsions according to this invention were prepared as described in Example 5, using different stirring times.

With CC[C@H](C)[C@H](NC(=O)[C@H](CCC(=O)O)NC(=O)[C@H](C)NC(=O)[C@@H](NC(=O)[C@@H](N)CCCCN)C(C)C)C(=O)N[C@H](C(=O)N[C@@H](Cc1c[nH]cn1)C(=O)N[C@@H](Cc1ccccc1)C(=O)N[C@@H](CC(C)C)C(=O)O)C(C)C [MPS-215] the “Content after 2 month at 5° C.” value ([1]; emulsion of Example 5, 2 month at 5° C.) was 0.56 mg/g, the “Content after 2 month at 25° C.” value ([1]; emulsion of Example 5, 2 month at 25° C.) was 0.56 mg/g and the “Content after 2 month at −20° C.” value ([1]; emulsion of Example 5, 2 month at −20° C.) was 0.57 mg/g. For the same compound, the Initial content ([1]; emulsion of Example 5, initial) was 0.58 mg/g, the Concentration ([2]; stirring time 5 minutes) was 580 µg/mL and the Concentration ([2]; stirring time 10 minutes) was 580 µg/mL. For the same compound, the Concentration ([2]; stirring time 15 minutes) was 580 µg/mL.
